From paper PMC3737531
No constants are given. Whether binding was seen depends on the method and setting. In cells and extracts the contact can be indirect. Some entries that bind do so weakly or less than the wild type.

By UniProt entry, the sequences of proteins in these tests, tags left out. Where a name states a change or a piece, a line headed by the entry shows the natural chain unless it says otherwise. Chains listed by the source or under a name are the forms on record and can include a tag or linker.
UniProt Q8NI27: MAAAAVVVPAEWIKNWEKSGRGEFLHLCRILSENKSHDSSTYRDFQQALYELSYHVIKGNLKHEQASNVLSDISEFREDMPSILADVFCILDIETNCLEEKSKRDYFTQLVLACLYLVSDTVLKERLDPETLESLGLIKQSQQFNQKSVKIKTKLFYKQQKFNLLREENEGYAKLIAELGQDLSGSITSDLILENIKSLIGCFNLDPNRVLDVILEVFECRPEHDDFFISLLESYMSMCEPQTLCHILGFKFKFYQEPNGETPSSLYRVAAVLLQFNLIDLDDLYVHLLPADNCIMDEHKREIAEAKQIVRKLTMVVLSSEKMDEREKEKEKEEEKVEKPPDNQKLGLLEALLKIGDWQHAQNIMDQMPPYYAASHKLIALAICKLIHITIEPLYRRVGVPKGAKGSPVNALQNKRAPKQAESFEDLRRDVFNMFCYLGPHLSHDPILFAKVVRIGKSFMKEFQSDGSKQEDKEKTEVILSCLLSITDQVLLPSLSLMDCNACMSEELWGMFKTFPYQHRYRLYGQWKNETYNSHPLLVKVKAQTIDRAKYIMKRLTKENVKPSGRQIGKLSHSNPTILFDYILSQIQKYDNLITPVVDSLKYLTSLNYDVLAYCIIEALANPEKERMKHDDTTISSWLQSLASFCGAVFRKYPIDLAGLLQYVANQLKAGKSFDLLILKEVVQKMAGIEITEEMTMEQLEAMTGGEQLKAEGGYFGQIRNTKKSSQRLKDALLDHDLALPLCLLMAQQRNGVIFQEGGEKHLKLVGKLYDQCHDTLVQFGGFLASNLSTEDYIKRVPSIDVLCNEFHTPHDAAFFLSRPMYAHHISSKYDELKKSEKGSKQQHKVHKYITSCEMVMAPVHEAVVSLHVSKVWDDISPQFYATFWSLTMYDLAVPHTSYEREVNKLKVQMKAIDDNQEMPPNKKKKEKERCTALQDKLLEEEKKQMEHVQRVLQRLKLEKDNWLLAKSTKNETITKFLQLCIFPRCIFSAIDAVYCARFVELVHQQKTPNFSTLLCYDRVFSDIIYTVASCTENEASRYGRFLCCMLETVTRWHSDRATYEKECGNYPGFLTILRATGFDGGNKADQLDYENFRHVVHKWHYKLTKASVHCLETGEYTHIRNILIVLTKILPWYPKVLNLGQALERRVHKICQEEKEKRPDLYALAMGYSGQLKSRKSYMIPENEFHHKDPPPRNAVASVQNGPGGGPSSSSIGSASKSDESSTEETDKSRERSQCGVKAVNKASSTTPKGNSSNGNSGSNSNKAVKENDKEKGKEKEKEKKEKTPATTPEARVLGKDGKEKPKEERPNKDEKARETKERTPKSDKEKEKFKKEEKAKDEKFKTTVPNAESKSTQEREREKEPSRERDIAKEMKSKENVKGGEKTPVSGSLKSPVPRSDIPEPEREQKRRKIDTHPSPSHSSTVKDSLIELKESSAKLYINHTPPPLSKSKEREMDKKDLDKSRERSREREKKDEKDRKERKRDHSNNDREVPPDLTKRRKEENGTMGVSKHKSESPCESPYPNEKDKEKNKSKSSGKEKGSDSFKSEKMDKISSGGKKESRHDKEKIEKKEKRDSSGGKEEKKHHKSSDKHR
UniProt Q16630: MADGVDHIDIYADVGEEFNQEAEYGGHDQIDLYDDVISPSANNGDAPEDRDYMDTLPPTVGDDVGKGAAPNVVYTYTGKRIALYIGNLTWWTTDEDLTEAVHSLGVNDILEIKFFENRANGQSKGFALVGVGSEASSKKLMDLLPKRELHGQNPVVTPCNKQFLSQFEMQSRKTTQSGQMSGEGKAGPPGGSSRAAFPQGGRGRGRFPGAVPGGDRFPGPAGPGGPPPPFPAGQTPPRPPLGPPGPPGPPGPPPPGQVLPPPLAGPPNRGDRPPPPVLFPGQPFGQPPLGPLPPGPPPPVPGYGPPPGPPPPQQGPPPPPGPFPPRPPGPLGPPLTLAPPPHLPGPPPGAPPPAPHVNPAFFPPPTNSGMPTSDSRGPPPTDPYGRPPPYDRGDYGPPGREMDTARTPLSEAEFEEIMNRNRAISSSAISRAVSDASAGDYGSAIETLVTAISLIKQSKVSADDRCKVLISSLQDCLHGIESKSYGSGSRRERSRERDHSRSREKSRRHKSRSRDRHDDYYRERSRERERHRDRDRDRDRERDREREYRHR
CFIm72, a large subunit of CFIm (Q16630-2, form named): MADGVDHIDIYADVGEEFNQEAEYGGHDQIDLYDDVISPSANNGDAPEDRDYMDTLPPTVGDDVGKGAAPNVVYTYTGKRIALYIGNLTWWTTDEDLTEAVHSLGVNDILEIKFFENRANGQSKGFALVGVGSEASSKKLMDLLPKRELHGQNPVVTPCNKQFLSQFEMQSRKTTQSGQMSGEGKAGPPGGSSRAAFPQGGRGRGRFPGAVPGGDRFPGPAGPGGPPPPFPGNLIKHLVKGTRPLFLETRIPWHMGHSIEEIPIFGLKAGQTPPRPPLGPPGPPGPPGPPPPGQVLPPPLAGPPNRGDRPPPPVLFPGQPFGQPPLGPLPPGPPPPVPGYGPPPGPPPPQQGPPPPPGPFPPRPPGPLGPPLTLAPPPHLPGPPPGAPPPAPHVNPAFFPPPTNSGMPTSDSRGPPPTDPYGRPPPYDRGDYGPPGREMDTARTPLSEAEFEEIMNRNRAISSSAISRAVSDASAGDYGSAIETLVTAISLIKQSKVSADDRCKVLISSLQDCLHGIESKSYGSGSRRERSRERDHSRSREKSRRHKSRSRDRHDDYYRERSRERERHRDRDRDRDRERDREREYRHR

T1: Thoc5, a component of human TREX (human (endogenous in HeLa)) (UniProt Q13769)
T1 sequence: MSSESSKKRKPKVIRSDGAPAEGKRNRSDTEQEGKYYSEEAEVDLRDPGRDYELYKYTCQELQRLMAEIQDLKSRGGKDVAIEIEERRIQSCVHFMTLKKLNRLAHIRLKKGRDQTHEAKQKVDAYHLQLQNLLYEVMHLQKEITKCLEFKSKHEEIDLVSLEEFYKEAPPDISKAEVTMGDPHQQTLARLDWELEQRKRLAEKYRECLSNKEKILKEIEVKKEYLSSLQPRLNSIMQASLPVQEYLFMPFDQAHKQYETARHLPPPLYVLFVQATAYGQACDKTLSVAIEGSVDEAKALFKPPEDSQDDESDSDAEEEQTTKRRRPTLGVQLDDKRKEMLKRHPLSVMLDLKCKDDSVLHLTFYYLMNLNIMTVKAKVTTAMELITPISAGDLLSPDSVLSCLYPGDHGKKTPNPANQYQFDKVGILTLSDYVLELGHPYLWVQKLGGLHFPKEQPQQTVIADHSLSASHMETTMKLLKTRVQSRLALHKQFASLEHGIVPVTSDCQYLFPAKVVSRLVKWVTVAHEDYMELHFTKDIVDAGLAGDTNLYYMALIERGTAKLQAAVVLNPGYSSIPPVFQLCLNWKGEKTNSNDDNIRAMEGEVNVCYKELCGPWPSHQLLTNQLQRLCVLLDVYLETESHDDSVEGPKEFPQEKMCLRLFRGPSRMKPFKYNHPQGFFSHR

T2: Thoc7 (human (endogenous in HeLa)) (UniProt Q6I9Y2)
T2 sequence: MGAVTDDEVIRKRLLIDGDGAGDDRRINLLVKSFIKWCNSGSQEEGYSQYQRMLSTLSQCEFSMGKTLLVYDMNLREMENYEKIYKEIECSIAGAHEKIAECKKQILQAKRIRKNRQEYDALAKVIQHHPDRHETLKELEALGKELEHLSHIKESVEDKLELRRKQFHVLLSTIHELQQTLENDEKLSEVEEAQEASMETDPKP


Tests used:
Experiment in all cases: co-IP; RNase A-treated HeLa whole-cell extract; antibodies on protein A-Sepharose beads; RSBN (10 mM Tris-HCl pH 7.4, 100 mM NaCl, 2.5 mM MgCl2, 0.1% NP-40), 4°C, 3 h; five washes; western blotting; control rabbit anti-mouse IgG
[1] = molecular target: T1, Thoc5, a component of human TREX (human (endogenous in HeLa))
[2] = molecular target: Thoc2 (human (endogenous in HeLa)) (UniProt Q8NI27)
[3] = molecular target: T2, Thoc7 (human (endogenous in HeLa))

Molecule | binding [1] | binding [2] | binding [3]
CFIm72, a large subunit of CFIm (from UniProt Q16630-2 1-588) | binds | – | –
hFip1 (protein, UniProt Q6UN15 1-594) MSAGEVERLVSELSGGTGGDEEEEWLYGGPWDVHVHSDLAKDLDENEVERPEEENASANPPSGIEDETAENGVPKPKVTETEDDSDSDSDDDEDDVHVTIGDIKTGAPQYGSYGTAPVNLNIKTGGRVYGTTGTKVKGVDLDAPGSINGVPLLEVDLDSFEDKPWRKPGADLSDYFNYGFNEDTWKAYCEKQKRIRMGLEVIPVTSTTNKITAEDCTMEVTPGAEIQDGRFNLFKVQQGRTGNSEKETALPSTKAEFTSPPSLFKTGLPPSRNSTSSQSQTSTASRKANSSVGKWQDRYGRAESPDLRRLPGAIDVIGQTITISRVEGRRRANENSNIQVLSERSATEVDNNFSKPPPFFPPGAPPTHLPPPPFLPPPPTVSTAPPLIPPPGFPPPPGAPPPSLIPTIESGHSSGYDSRSARAFPYGNVAFPHLPGSAPSWPSLVDTSKQWDYYARREKDRDRERDRDRERDRDRDRERERTRERERERDHSPTPSVFNSDEERYRYREYAERGYERHRASREKEERHRERRHREKEETRHKSSRSNSRRRHESEEGDSHRRHKHKKSKRSKEGKEAGSEPAPEQESTEATPAE | binds | binds | binds
CPSF73 (protein, UniProt Q9UKF6 1-684) MSAIPAEESDQLLIRPLGAGQEVGRSCIILEFKGRKIMLDCGIHPGLEGMDALPYIDLIDPAEIDLLLISHFHLDHCGALPWFLQKTSFKGRTFMTHATKAIYRWLLSDYVKVSNISADDMLYTETDLEESMDKIETINFHEVKEVAGIKFWCYHAGHVLGAAMFMIEIAGVKLLYTGDFSRQEDRHLMAAEIPNIKPDILIIESTYGTHIHEKREEREARFCNTVHDIVNRGGRGLIPVFALGRAQELLLILDEYWQNHPELHDIPIYYASSLAKKCMAVYQTYVNAMNDKIRKQININNPFVFKHISNLKSMDHFDDIGPSVVMASPGMMQSGLSRELFESWCTDKRNGVIIAGYCVEGTLAKHIMSEPEEITTMSGQKLPLKMSVDYISFSAHTDYQQTSEFIRALKPPHVILVHGEQNEMARLKAALIREYEDNDEVHIEVHNPRNTEAVTLNFRGEKLAKVMGFLADKKPEQGQRVSGILVKRNFNYHILSPCDLSNYTDLAMSTVKQTQAIPYTGPFNLLCYQLQKLTGDVEELEIQEKPALKVFKNITVIQEPGMVVLEWLANPSNDMYADTVTTVILEVQSNPKIRKGAVQKVSKKLEMHVYSKRLEIMLQDIFGEDCVSVKDDSILSVTVDGKTANLNLETRTVECEEGSEDDESLREMVELAAQRLYEALTPVH | binds | binds | binds
CstF77 (protein, UniProt Q12996 1-717) MSGDGATEQAAEYVPEKVKKAEKKLEENPYDLDAWSILIREAQNQPIDKARKTYERLVAQFPSSGRFWKLYIEAEIKAKNYDKVEKLFQRCLMKVLHIDLWKCYLSYVRETKGKLPSYKEKMAQAYDFALDKIGMEIMSYQIWVDYINFLKGVEAVGSYAENQRITAVRRVYQRGCVNPMINIEQLWRDYNKYEEGINIHLAKKMIEDRSRDYMNARRVAKEYETVMKGLDRNAPSVPPQNTPQEAQQVDMWKKYIQWEKSNPLRTEDQTLITKRVMFAYEQCLLVLGHHPDIWYEAAQYLEQSSKLLAEKGDMNNAKLFSDEAANIYERAISTLLKKNMLLYFAYADYEESRMKYEKVHSIYNRLLAIEDIDPTLVYIQYMKFARRAEGIKSGRMIFKKAREDTRTRHHVYVTAALMEYYCSKDKSVAFKIFELGLKKYGDIPEYVLAYIDYLSHLNEDNNTRVLFERVLTSGSLPPEKSGEIWARFLAFESNIGDLASILKVEKRRFTAFKEEYEGKETALLVDRYKFMDLYPCSASELKALGYKDVSRAKLAAIIPDPVVAPSIVPVLKDEVDRKPEYPKPDTQQMIPFQPRHLAPPGLHPVPGGVFPVPPAAVVLMKLLPPPICFQGPFVQVDELMEIFRRCKIPNTVEEAVRIITGGAPELAVEGNGPVESNAVLTKAVKRPNEDSDEDEEKGAVVPPVHDIYRARQQKRIR | binds | binds | binds

More lines, now with the values ahead:

binding [1] | binding [2] | binding [3] | Molecule
binds | binds | binds | CFIm68, a large subunit of mammalian cleavage factor I (CFIm) (from UniProt Q16630 1-551)
binds | binds | binds | CPSF100 (protein, UniProt Q9P2I0 1-782) MTSIIKLTTLSGVQEESALCYLLQVDEFRFLLDCGWDEHFSMDIIDSLRKHVHQIDAVLLSHPDPLHLGALPYAVGKLGLNCAIYATIPVYKMGQMFMYDLYQSRHNTEDFTLFTLDDVDAAFDKIQQLKFSQIVNLKGKGHGLSITPLPAGHMIGGTIWKIVKDGEEEIVYAVDFNHKREIHLNGCSLEMLSRPSLLITDSFNATYVQPRRKQRDEQLLTNVLETLRGDGNVLIAVDTAGRVLELAQLLDQIWRTKDAGLGVYSLALLNNVSYNVVEFSKSQVEWMSDKLMRCFEDKRNNPFQFRHLSLCHGLSDLARVPSPKVVLASQPDLECGFSRDLFIQWCQDPKNSIILTYRTTPGTLARFLIDNPSEKITEIELRKRVKLEGKELEEYLEKEKLKKEAAKKLEQSKEADIDSSDESDIEEDIDQPSAHKTKHDLMMKGEGSRKGSFFKQAKKSYPMFPAPEERIKWDEYGEIIKPEDFLVPELQATEEEKSKLESGLTNGDEPMDQDLSDVPTKCISTTESIEIKARVTYIDYEGRSDGDSIKKIINQMKPRQLIIVHGPPEASQDLAECCRAFGGKDIKVYMPKLHETVDATSETHIYQVRLKDSLVSSLQFCKAKDAELAWIDGVLDMRVSKVDTGVILEEGELKDDGEDSEMQVEAPSDSSVIAQQKAMKSLFGDDEKETGEESEIIPTLEPLPPHEVPGHQSVFMNEPRLSDFKQVLLREGIQAEFVGGVLVCNNQVAVRRTETGRIGLEGCLCQDFYRIRDLLYEQYAIV
